At least one structure is not confirmed: it was looked up by name or label, or the drawing left a doubt.
Test system: primary human foreskin fibroblasts
Experiment: In vitro single-concentration screen of predicted compounds (brightfield, qRT-PCR)
Format: cell-based
Conditions: 24 hours; for CCN2 expression (qRT-PCR) / MMP1 expression (qRT-PCR) / SERPINE1 expression (qRT-PCR): vs vehicle
Protocol: In order to initially test the identified drugs, we applied each drug or DMSO vehicle control at a single concentration to primary human foreskin fibroblasts in vitro for 24 hours, before harvesting and measuring relative expression of selected myofibroblast marker genes by qRT-PCR. […] None of the drugs tested appeared to affect expression of TGFB1 (the gene encoding transforming growth factor-beta 1) at the examined concentrations.
MATERIALS AND METHODS Materials Emetine dihydrochloride hydrate, homoharringtonine, Ch55 and panobinostat were acquired from Fisher Scientific (Waltham, MA). AZD-7762 was acquired from Selleck Chemicals (Houston, TX). For in vitro work, emetine dihydrochloride hydrate was dissolved in sterile H2O at 50 mM. Homoharringtonine was dissolved in DMSO at 10 mg/mL. Panobinostat was dissolved in DMSO at 425 μM. […] AZD-7762 was dissolved in DMSO at 500 μM. Recombinant human TGF-β1 (Sigma-Aldrich) was dissolved in sterile H2O at 50 µg/mL. All-trans-retinoic acid (Thermo Scientific) was dissolved in DMSO at 10 mM.

SMILES	myofibroblast activation	CCN2 expression (qRT-PCR)	MMP1 expression (qRT-PCR)	SERPINE1 expression (qRT-PCR)
COC(=O)C[C@](O)(CCCC(C)(C)O)C(=O)O[C@@H]1C(OC)=C[C@]23CCCN2CCc2cc4c(cc2[C@H]13)OCO4 [homoharringtonine]	induced myofibroblast activation	increased expression	decreased expression	increased expression
Cc1[nH]c2ccccc2c1CCNCc1ccc(/C=C/C(=O)NO)cc1 [panobinostat]	–	increased expression	decreased expression	increased expression

Reference: patent publication US20240245639A1, “Dermal Application of Retinoic Acid Receptor Agonists for Amelioration of Hypertrophic Scar” (Northwestern University, priority 2023, published 2024)
